## Library screen at single concentrations

Source: ChEMBL document CHEMBL3988442, “University of Dundee, Small-Polar-MMV Screening Library” (2021).

Mtb glucose medium: 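Whole-cell growth test on Mycobacterium tuberculosis, read after 3 days in glucose-containing 7H9 medium; the read-out is not stated. Compounds at 50 µM. Direction is inferred from retests: higher values go with more growth inhibition. About 69,000 compounds were tested under these conditions; 1.1% (about 760) showed 50% or more at least once.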
Mtb cholesterol medium: 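Growth of Mycobacterium tuberculosis over 4 days (cholesterol / DPPC medium with tyloxapol); the read-out is not stated. Compounds at 50 µM. The record gives no direction; compounds that gave an IC50 in retests scored well above the rest, so higher reads as more growth inhibition. Size under these conditions: about 69,000 compounds, about 370 of them at 50% or above in at least one test.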

Values are the deposited “Percent Effect”, in %. The record does not define 0% and 100%; most values in the screen are far below 50% and negative numbers occur (in some assays of this library far below -100). This is an unselected part of the compounds tested. Two or more numbers in one place are separate tests of the same structure; such repeats can differ widely.

Compound,Mtb glucose medium,Mtb cholesterol medium
CCc1ncc(C(=O)NCCNc2ncnc3sccc23)s1,-2.775% and -19.04%,-12.24%
Cc1cnn(CC2CN(CC(=O)Nc3nnc(C)s3)CCO2)c1 (stereo not shown),-9.45%,5.104%
CCC1(O)CCCN(c2nc(C(C)(C)C)nc3c2cnn3C)C1 (stereo not shown),-1.539%,-8.099%
c1cncc(NCCNC2CCCNC2)c1 (stereo not shown),-6.376%,-6.765%
CC(C)CCNc1nc(C(=O)NC2CC2)cs1,42.35%,36.49%
O=C(O)C(F)(F)F.O=C(O)C(F)(F)F.O=C(O)C(F)(F)F.[H][C@]12C[C@@H](Cn3cccn3)N(c3nccs3)[C@@]1([H])CCN(C(C)C)C2,-3.878%,-5.819%
COCCCNC1CCCN(c2ccc(C)nn2)C1 (stereo not shown),-22.25%,-20.65%
Cc1cccc(NC(=O)CNC(=O)Cn2ncc(Cl)c(Cl)c2=O)c1C,-36.02%,-7.206% and -39.19%
CC(C)(C)c1n[nH]c(C2CN(C(=O)Cn3ccccc3=O)CCO2)n1 (stereo not shown),9.376%,-0.06359%
CCc1nnc(CN2CCc3cnc(C)nc3C2)o1,-13.41%,-11.19%
CCC(NC(=O)c1ccco1)c1ccccc1OCC(=O)N1CCCC1 (stereo not shown),4.257%,-5.698%
COCCN1CCC2(CC1)CN(C(=O)c1ccccc1)CCO2.O=C(O)C(F)(F)F,16.08%,0.01313%
CCCN(Cc1ccccn1)Cc1ccccc1OC,1.07%,6.801%
[H][C@@]12C[C@H](c3noc(C)n3)O[C@]1([H])CCN(C(=O)c1ccc(C)o1)C2,-4.563% and 3.858%,1.9%
Cc1cccnc1NC(=O)C1(n2cnnn2)CCCCC1,7.531%,-3.221%
CS(=O)(=O)N1CCC(Oc2ccc(C#N)cc2)CC1,2.61%,6.408%
Cc1ncnc2c1CCN(CC(=O)N(C)C)CC2.O=C(O)C(F)(F)F,4.894%,0.2797%
CN1CCN(Cc2nnc(C3CCN(S(C)(=O)=O)CC3)n2C)CC1,17.1%,10.83%
CNC(=O)CCNC(=O)c1cccc(Cn2nc(C)cc2C)c1,-1.011% and -0.9084%,3.912%
CCN1CCn2c(C)cnc2C12CCN(C(=O)COC)CC2.O=C(O)C(F)(F)F.O=C(O)C(F)(F)F,9.533%,-4.147% and -4.387%
Cc1ccc2c(n1)N(C)CCN(C(=O)C1CC1)C2.O=C(O)C(F)(F)F,-0.513%,-1.739%
O=C(O)C(F)(F)F.O=C(O)C(F)(F)F.O=C(O)C(F)(F)F.[H][C@@]12CN(Cc3ccncc3)C[C@]1([H])[C@@H](OC)CCN2Cc1cccs1,-9.416%,10.02%
O=C(c1cccc(CNS(=O)(=O)c2ccc(F)cc2)c1)N1CCCC1,-13.43%,-23.31%
O=C1CCCN1CC1CN(C(=O)N2CCOCC2)Cc2nccn2C1 (stereo not shown),-4.323% and -13.76%,12.5% and -1.488%
CC(C)c1nc(CN(C)Cc2ccc(O)c(Cl)c2)cs1,-8.478%,-4.682%
Cc1cc(C)nc(CCNc2nccc(CCC(F)(F)F)n2)n1,4.362% and 19.89%,-3.381%
CC(C)(CNC(=O)Nc1cccc(-c2nccs2)c1)C(N)=O,4.228%,-14.86%
Cc1sc2c(C3CCCNC3)nc(Nc3cccc(F)c3)n2c1C.Cl (stereo not shown),-3.081%,11.54% and 18.8%
CN(Cc1n[nH]c2c1CCCC2)c1cc(N2CCOCC2)nc(N)n1,-36.94%,-17.92%
Cc1cccc(NC(=O)N2CCn3cnc(COCC4CC4)c3C2)c1,-6.048%,-4.1%
[H][C@@]12CCCO[C@]1([H])[C@H](N1CCN(C)CC1)CN2C(=O)c1ccc(C)nc1,-12.89%,-14.25%
Cc1cc(N2CCOC(C(F)(F)F)C2)nc(-c2ccccc2O)n1 (stereo not shown),-15.37%,-4.174%
NS(=O)(=O)c1cc(C(=O)N2CCCCC2)cs1,-7.797%,-17.64%
CCc1nc(CN(C)C(=O)c2cc(NC(C)=O)ccc2Cl)no1,-12.32%,7.281%
O=C(C1CSc2ccccc2O1)N1CCN(CCO)CC1 (stereo not shown),-6.515% and 2.667%,-7.478%
CCCC1(CO)CCCN(c2ncccc2F)C1 (stereo not shown),-12%,10.83%
CC1CCC(N2Cc3nc(N)ncc3C2=O)CC1 (stereo not shown),41.5%,1.61%
Cl.Clc1cccnc1OC1CCNCC1,-8.566%,-23.45%
Cn1c(CN2CCC(O)CC2)nnc1C1CCCN(c2ccncc2)C1 (stereo not shown),4.565% and 18%,15.9%
CCC(CC)NC(=O)c1nc2n(n1)-c1ccccc1S(=O)(=O)N2,12.07%,8.984%
CN(C(=O)Cn1nc(-c2cccs2)ccc1=O)C1CCS(=O)(=O)C1 (stereo not shown),-24.28% and -12.61%,-19.42%
Cc1cnn(CCNCC(=O)Nc2ccc(Br)cn2)c1,8.155% and 4.239%,0.7745%
O=c1c(CN2CCOCC2)coc2ccc(Cl)cc12,-12.6% and 1.015%,8.895%
O=C(O)c1ccn(-c2cccc(NC(=O)c3ccccc3Cl)c2)n1,4.115%,-4.413%
CC(C)Nc1nc2c(cc1C(=O)NCC1CC1)CCNCC2.O=C(O)C(F)(F)F.O=C(O)C(F)(F)F,28.34%,24.03%
CCCn1ncnc1C(C)NC(=O)C1CCN(CC(N)=O)CC1 (stereo not shown),-0.5626% and 3.681%,-3.054% and -5.336%
[H][C@@]12CN(C(=O)CCc3ccccc3)C[C@@]1([H])OCC(=O)N2,-11.05%,-17.22%
Cc1cc(N2CCc3cnc(C)nc3C2)n2nc(C(F)(F)F)nc2n1,-7.698%,-11.48%
CN(C)c1ncc2c(O)nc(C3CCNCC3)cc2n1.Cl,39.97%,9.848%
CN1C(=O)CCCC12CCCN(Cc1nccs1)C2.O=C(O)C(F)(F)F (stereo not shown),-2.751% and 6.926%,-16.33%
CC(NC(=O)NCCCn1cncn1)c1ccc2c(c1)OCCO2 (stereo not shown),-6.93%,-28.64%
Cc1noc(C)c1-c1ccnc(C2CCN(S(=O)(=O)N(C)C)CC2)c1,17.56%,-1.678%
[H][C@@]12CS(=O)(=O)C[C@]1([H])N(C(=O)c1[nH]c3ccccc3c1Cl)CCN2CC,-8.968%,9.526%
CCC(C(=O)NCc1csc(N2CCOCC2)n1)n1cccn1 (stereo not shown),5.422%,-6.109%
CN(C)CC1CN(Cc2ccc(F)cc2)Cc2nccn2C1.O=C(O)C(F)(F)F.O=C(O)C(F)(F)F (stereo not shown),-0.2402%,-14.21%
CCc1ocnc1C(=O)N1CCC2(CC1)OCC(C)O2 (stereo not shown),10.13% and 8.645%,22.23%
COc1ccc2c(c1)nc1n2[C@@H](CNCc2cnn(C)c2)COC1,12.51% and 0.5759%,-3.306%
Cc1cccc(N2CCC3(CCCN(C(=O)c4cccnc4)C3)CC2)n1.O=C(O)C(F)(F)F.O=C(O)C(F)(F)F,8.605%,-9.332%
CC(C)NC(=O)N1CCC2(CC(=O)N(c3cccc(F)c3)C2)C1 (stereo not shown),-12.24%,-1.036%
CN(C)S(=O)(=O)c1ccc(-c2nc(C#N)c(NC(C)(C)C)o2)o1.Cl,21.74%,22.73%
O=C(O)C(F)(F)F.[H][C@]12CN(CCN(C)C)C(=O)[C@@]1([H])CN(S(=O)(=O)c1ccccc1)C2,17.04%,12.42%
CC(=O)N1CCC(n2ccc(-c3cnc(NCC(C)C)nc3)n2)CC1,52.34%,1.354%
O=c1cc(Cn2ccnc2)nc2n1CCCN(Cc1ccsc1)C2,-20.53%,-8.809%
CC(C)C(=O)N1CC2(CCN(CC(C)(C)C)CC2)C1.O=C(O)C(F)(F)F,-14.01%,-38.4%
Cc1nccn1C1CCCN(C(=O)c2ccc3c(c2)COC3)C1 (stereo not shown),20.14%,-0.6059%
O=C(Cn1ccc2sccc2c1=O)NCc1ccccc1F,2.428%,-12.44%
CC(=O)N1CCN(C(=O)C(C)n2cncn2)CC1 (stereo not shown),6.446%,6.361%
CCS(=O)(=O)N1CCC2(CCC(N3CCCC3)c3ccccc32)CC1.O=C(O)C(F)(F)F (stereo not shown),6.711% and 0.1316%,12.32%
Cc1nc(-c2ccsc2)ccc1C(=O)NCCC(=O)N1CCCC1,3.974%,3.495%
CNc1cc(N2CCCC2CNCc2ccccn2)ncn1 (stereo not shown),-20.97%,-11.31% and 0.5927%
CCC(Nc1nnnn1-c1ccccc1)C(=O)NCc1ccsc1 (stereo not shown),40.93%,-7.701%
O=C(NCCC(=O)N1CCCCCCC1)c1ccoc1,23.23%,4.416%
CCc1noc(CC)c1CC(=O)N1CCC(C(=O)NC(C)C)CC1,5.492%,-12.15%
Cn1cc(C(NCCc2ccccn2)c2cccc(F)c2)cn1 (stereo not shown),3.383% and 2.248%,3.966%
CCC(C)CNCC1(S(C)(=O)=O)CCOCC1 (stereo not shown),10.69% and -11.43%,-9.644%
O=C(Cn1c(=O)oc2ccccc21)NCC1(O)CCc2ccccc21 (stereo not shown),-1.272%,-0.3507%
CCN1CC2(CCN(C(=O)C(C)Oc3ccc(F)cc3F)CC2)OC1=O (stereo not shown),-5.759%,-9.123%
O=C(Cc1ccccn1)N1CC[C@]2(C[C@@H](Oc3ncccc3F)CO2)C1.O=C(O)C(F)(F)F.O=C(O)C(F)(F)F,-10.2%,-2.256%
CN1C[C@@H](n2cnc(-c3ccccc3)c2-c2ccccn2)C[C@H]1C(=O)O,-9.736%,12.62%
COc1cc(C(C)NCc2ncccc2C)ccc1SC(F)F (stereo not shown),-37.69%,16.1% and 3.182%
CNC(=O)c1cccc(CCNS(C)(=O)=O)c1,1.71%,4.254%
NC(=O)c1c(-c2ccc(Cl)cc2)csc1NC(=O)CCC(=O)O,-8.863%,-12.6%
[H][C@@]12CCCC[C@]1(O)CCN(Cc1ccc(OCC(N)=O)c(Cl)c1)C2,7.619% and -4.477%,0.5404%
Cc1[nH]c2ccccc2c1-c1ccnc(NC[C@H](O)CO)n1,-31.9%,-38.91%

For reference, 6 entries once more:

{"compound": "Cc1cnn(CCNCC(=O)Nc2ccc(Br)cn2)c1", "Mtb glucose medium": "8.155 and 4.239", "Mtb cholesterol medium": 0.7745}
{"compound": "CCS(=O)(=O)N1CCC2(CCC(N3CCCC3)c3ccccc32)CC1.O=C(O)C(F)(F)F", "stereo": "stereo not shown", "Mtb glucose medium": "6.711 and 0.1316", "Mtb cholesterol medium": 12.32}
{"compound": "[H][C@@]12CS(=O)(=O)C[C@]1([H])N(C(=O)c1[nH]c3ccccc3c1Cl)CCN2CC", "Mtb glucose medium": -8.968, "Mtb cholesterol medium": 9.526}
{"compound": "CCC(Nc1nnnn1-c1ccccc1)C(=O)NCc1ccsc1", "stereo": "stereo not shown", "Mtb glucose medium": 40.93, "Mtb cholesterol medium": -7.701}
{"compound": "Cc1[nH]c2ccccc2c1-c1ccnc(NC[C@H](O)CO)n1", "Mtb glucose medium": -31.9, "Mtb cholesterol medium": -38.91}
{"compound": "Cc1cccnc1NC(=O)C1(n2cnnn2)CCCCC1", "Mtb glucose medium": 7.531, "Mtb cholesterol medium": -3.221}